Data source: PubChem BioAssay AID1508597 (Cure First, 2020)
Test: 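Survival screen with siRNA in ovarian cancer cells derived from patients, with or without rucaparib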 (primary screen). Cell system: human ovarian carcinoma lines grown from tumours: OCI-P5x (papillary serous) and OCI-C5x (clear cell). Reagents: siRNA pool against human genes, 1.25 pmol siRNA per well. Time to read-out: 72 h or 96 h, depending on the cell culture. Challenge: rucaparib 20 µM (about IC30) or vehicle, present until read-out. Rucaparib or vehicle: Vehicle. Cell line: OCI-P5x (serous). Measured: 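ATP luminescence measured at 72 or 96 h according to the culture, then normalised and expressed as percent viability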. Direction: viability, normalised: higher = more viable cells remaining. Rule for the call: 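a well counts as a hit if its normalised viability is under 80 percent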. Calls: active = viability under 80%; inactive = viability 80% or more.
Shown is a random part of the about 2,100 reagents, in one setting of the screen. 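Calls flag viability under 80% in either arm, not effects specific to rucaparib; the reference for percent is not stated.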 Some reagents were tested in more than one well and are listed for each. Not stated in the record: the 100% reference.

| target | technical replicate | viability, normalised (%) | Outcome |
| --- | --- | --- | --- |
| PTK2 (protein tyrosine kinase 2) | 1 | 128 | inactive |
| PTK2 (protein tyrosine kinase 2) | 2 | 137 | inactive |
| PTK2 (protein tyrosine kinase 2) | 3 | 119 | inactive |
| ENOSF1 (enolase superfamily member 1) | 1 | 72.4 | active |
| ENOSF1 (enolase superfamily member 1) | 2 | 106 | inactive |
| ENOSF1 (enolase superfamily member 1) | 3 | 110 | inactive |
| EXT1 (exostosin glycosyltransferase 1) | 1 | 66.2 | active |
| EXT1 (exostosin glycosyltransferase 1) | 2 | 68.4 | active |
| EXT1 (exostosin glycosyltransferase 1) | 3 | 78.7 | active |
| POLE3 (DNA polymerase epsilon 3, accessory subunit) | 1 | 51.3 | active |
| POLE3 (DNA polymerase epsilon 3, accessory subunit) | 2 | 59.8 | active |
| POLE3 (DNA polymerase epsilon 3, accessory subunit) | 3 | 55.9 | active |
| TOP3A (DNA topoisomerase III alpha) | 1 | 74.6 | active |
| TOP3A (DNA topoisomerase III alpha) | 2 | 88.7 | inactive |
| TOP3A (DNA topoisomerase III alpha) | 3 | 82 | inactive |
| SETD1A (SET domain containing 1A, histone lysine methyltransferase) | 1 | 59.3 | active |
| SETD1A (SET domain containing 1A, histone lysine methyltransferase) | 2 | 59.2 | active |
| SETD1A (SET domain containing 1A, histone lysine methyltransferase) | 3 | 94.5 | inactive |
| PDE6B (phosphodiesterase 6B) | 1 | 74.1 | active |
| PDE6B (phosphodiesterase 6B) | 2 | 69.8 | active |
| PDE6B (phosphodiesterase 6B) | 3 | 66.9 | active |
| PDK4 (pyruvate dehydrogenase kinase 4) | 1 | 82.8 | inactive |
| PDK4 (pyruvate dehydrogenase kinase 4) | 2 | 69.4 | active |
| PDK4 (pyruvate dehydrogenase kinase 4) | 3 | 84.1 | inactive |
| ZRANB3 (zinc finger RANBP2-type containing 3) | 1 | 78.1 | active |
| ZRANB3 (zinc finger RANBP2-type containing 3) | 2 | 80.5 | inactive |
| ZRANB3 (zinc finger RANBP2-type containing 3) | 3 | 106 | inactive |
| CLDN7 (claudin 7) | 1 | 67.1 | active |
| CLDN7 (claudin 7) | 2 | 77.1 | active |
| CLDN7 (claudin 7) | 3 | 123 | inactive |
| GRK5 (G protein-coupled receptor kinase 5) | 1 | 128 | inactive |
| GRK5 (G protein-coupled receptor kinase 5) | 2 | 88.8 | inactive |
| GRK5 (G protein-coupled receptor kinase 5) | 3 | 116 | inactive |
| POLB (DNA polymerase beta) | 1 | 57.6 | active |
| POLB (DNA polymerase beta) | 2 | 63.7 | active |
| POLB (DNA polymerase beta) | 3 | 58.1 | active |
| MRI1 (methylthioribose-1-phosphate isomerase 1) | 1 | 81.9 | inactive |
| MRI1 (methylthioribose-1-phosphate isomerase 1) | 2 | 93.5 | inactive |
| MRI1 (methylthioribose-1-phosphate isomerase 1) | 3 | 99.5 | inactive |
| PDK3 (pyruvate dehydrogenase kinase 3) | 1 | 109 | inactive |
| PDK3 (pyruvate dehydrogenase kinase 3) | 2 | 100 | inactive |
| PDK3 (pyruvate dehydrogenase kinase 3) | 3 | 83.7 | inactive |
| SHH (sonic hedgehog signaling molecule) | 1 | 51.5 | active |
| SHH (sonic hedgehog signaling molecule) | 2 | 57.2 | active |
| SHH (sonic hedgehog signaling molecule) | 3 | 79.2 | active |
| ZFYVE9 (zinc finger FYVE-type containing 9) | 1 | 64.3 | active |
| ZFYVE9 (zinc finger FYVE-type containing 9) | 2 | 94.2 | inactive |
| ZFYVE9 (zinc finger FYVE-type containing 9) | 3 | 55.2 | active |
| DDA1 (DET1 and DDB1 associated 1) | 1 | 59.6 | active |
| DDA1 (DET1 and DDB1 associated 1) | 2 | 65.1 | active |
| DDA1 (DET1 and DDB1 associated 1) | 3 | 66.8 | active |
| TRIM24 (tripartite motif containing 24) | 1 | 37.2 | active |
| TRIM24 (tripartite motif containing 24) | 1 | 68.4 | active |
| TRIM24 (tripartite motif containing 24) | 2 | 100 | inactive |
| TRIM24 (tripartite motif containing 24) | 2 | 64 | active |
| TRIM24 (tripartite motif containing 24) | 3 | 99.6 | inactive |
| TRIM24 (tripartite motif containing 24) | 3 | 98.4 | inactive |
| RLF (RLF zinc finger) | 1 | 67.8 | active |
| RLF (RLF zinc finger) | 2 | 62.8 | active |
| RLF (RLF zinc finger) | 3 | 72.7 | active |
| TDRD1 (tudor domain containing 1) | 1 | 73.2 | active |
| TDRD1 (tudor domain containing 1) | 2 | 83.1 | inactive |
| TDRD1 (tudor domain containing 1) | 3 | 75.8 | active |
| MTA3 (metastasis associated 1 family member 3) | 1 | 75.6 | active |
| MTA3 (metastasis associated 1 family member 3) | 2 | 65.7 | active |
| MTA3 (metastasis associated 1 family member 3) | 3 | 69.9 | active |
| POLR2I (RNA polymerase II subunit I) | 1 | 48.7 | active |
| POLR2I (RNA polymerase II subunit I) | 2 | 63.7 | active |
| POLR2I (RNA polymerase II subunit I) | 3 | 66.9 | active |
| DAPK2 (death associated protein kinase 2) | 1 | 82.3 | inactive |
| DAPK2 (death associated protein kinase 2) | 2 | 66.2 | active |
| DAPK2 (death associated protein kinase 2) | 3 | 70.6 | active |
| PES1 (pescadillo ribosomal biogenesis factor 1) | 1 | 74.3 | active |
| PES1 (pescadillo ribosomal biogenesis factor 1) | 2 | 71.3 | active |
| PES1 (pescadillo ribosomal biogenesis factor 1) | 3 | 78.1 | active |

11 of these entries, set out differently.
{"target":"ZRANB3 (zinc finger RANBP2-type containing 3)","technical replicate":"2","viability, normalised (%)":80.5,"Outcome":"inactive"}
{"target":"ZRANB3 (zinc finger RANBP2-type containing 3)","technical replicate":"3","viability, normalised (%)":106,"Outcome":"inactive"}
{"target":"CLDN7 (claudin 7)","technical replicate":"1","viability, normalised (%)":67.1,"Outcome":"active"}
{"target":"CLDN7 (claudin 7)","technical replicate":"2","viability, normalised (%)":77.1,"Outcome":"active"}
{"target":"CLDN7 (claudin 7)","technical replicate":"3","viability, normalised (%)":123,"Outcome":"inactive"}
{"target":"GRK5 (G protein-coupled receptor kinase 5)","technical replicate":"1","viability, normalised (%)":128,"Outcome":"inactive"}
{"target":"GRK5 (G protein-coupled receptor kinase 5)","technical replicate":"2","viability, normalised (%)":88.8,"Outcome":"inactive"}
{"target":"GRK5 (G protein-coupled receptor kinase 5)","technical replicate":"3","viability, normalised (%)":116,"Outcome":"inactive"}
{"target":"POLB (DNA polymerase beta)","technical replicate":"1","viability, normalised (%)":57.6,"Outcome":"active"}
{"target":"POLB (DNA polymerase beta)","technical replicate":"2","viability, normalised (%)":63.7,"Outcome":"active"}
{"target":"POLB (DNA polymerase beta)","technical replicate":"3","viability, normalised (%)":58.1,"Outcome":"active"}
